PubChem BioAssay AID1224828, NIAID – 2016
Aim: 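Regulators linking TLR4 signalling to p65 nuclear translocation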 (primary screen). Cells: mouse RAW264.7 G9 macrophage reporter cells (GFP-p65, Tnf promoter-mCherry). Reagent: siRNA pool against mouse genes, 100 nM. Timing: 2 days siRNA transfection, then 40 min LPS before fixation. Challenge: LPS (Salmonella minnesota R595) at 10 ng/ml. Read-out: 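Imaged p65 nuclear translocation ratio, normalised to the plate median, converted to robust z-scores and averaged across two replicates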. Direction: p65 translocation robust z-score: higher = more nuclear NF-kappaB p65 after LPS than the plate median; nuclear/cytoplasmic p65 ratio: higher = more nuclear NF-kappaB p65. Active means: 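Active if robust z is above 3.3 (negative regulators) or below -1.56, the Tlr4 control median (positive regulators); activity score 50 or more; control wells not called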. Meaning of the calls: active = hit (p65 shift raised or lowered); inactive = no clear change.
In all, the deposit lists about 17,000 reagents; below is a part drawn at random. Over the whole deposit, 762 (4.5%) are marked active. 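Active calls include both raised and lowered p65 entry, mostly lowered; wells with fewer than 50 cells lack a z-score.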 Raw values vary from plate to plate and are shown uncorrected. Entries without a mark were called inactive.

{"gene": "Sp140l2 (Sp140 nuclear body protein like 2)", "p65 translocation robust z-score": -0.47, "nuclear/cytoplasmic p65 ratio, rep 1": 1.57, "nuclear/cytoplasmic p65 ratio, rep 2": 1.52, "low cell count flag": "enough cells to score"}
{"gene": "Ddx42 (DEAD box helicase 42)", "p65 translocation robust z-score": 0.09, "nuclear/cytoplasmic p65 ratio, rep 1": 1.63, "nuclear/cytoplasmic p65 ratio, rep 2": 1.52, "low cell count flag": "enough cells to score"}
{"gene": "Mbd2 (methyl-CpG binding domain protein 2)", "p65 translocation robust z-score": -1.23, "nuclear/cytoplasmic p65 ratio, rep 1": 1.31, "nuclear/cytoplasmic p65 ratio, rep 2": 1.16, "low cell count flag": "enough cells to score"}
{"gene": "Grem1 (gremlin 1, DAN family BMP antagonist)", "p65 translocation robust z-score": 1.27, "nuclear/cytoplasmic p65 ratio, rep 1": 1.86, "nuclear/cytoplasmic p65 ratio, rep 2": 1.7, "low cell count flag": "enough cells to score"}
{"gene": "Rbfox1 (RNA binding protein, fox-1 homolog (C. elegans) 1)", "p65 translocation robust z-score": -0.39, "nuclear/cytoplasmic p65 ratio, rep 1": 1.21, "nuclear/cytoplasmic p65 ratio, rep 2": 1.47, "low cell count flag": "enough cells to score"}
{"gene": "Qtrt1 (queuine tRNA-ribosyltransferase catalytic subunit 1)", "p65 translocation robust z-score": -0.79, "nuclear/cytoplasmic p65 ratio, rep 1": 1.28, "nuclear/cytoplasmic p65 ratio, rep 2": 1.13, "low cell count flag": "enough cells to score"}
{"gene": "Kng1 (kininogen 1)", "p65 translocation robust z-score": 0.84, "nuclear/cytoplasmic p65 ratio, rep 1": 1.61, "nuclear/cytoplasmic p65 ratio, rep 2": 1.47, "low cell count flag": "enough cells to score"}
{"gene": "Mettl3", "p65 translocation robust z-score": -0.48, "nuclear/cytoplasmic p65 ratio, rep 1": 1.57, "nuclear/cytoplasmic p65 ratio, rep 2": 1.54, "low cell count flag": "enough cells to score"}
{"gene": "Akap9 (A kinase anchor protein 9)", "p65 translocation robust z-score": 1.22, "nuclear/cytoplasmic p65 ratio, rep 1": 1.74, "nuclear/cytoplasmic p65 ratio, rep 2": 1.86, "low cell count flag": "enough cells to score"}
{"gene": "Wscd1 (WSC domain containing 1)", "p65 translocation robust z-score": -0.43, "nuclear/cytoplasmic p65 ratio, rep 1": 1.42, "nuclear/cytoplasmic p65 ratio, rep 2": 1.88, "low cell count flag": "enough cells to score"}
{"gene": "Exph5 (exophilin 5)", "p65 translocation robust z-score": 1.12, "nuclear/cytoplasmic p65 ratio, rep 1": 1.61, "nuclear/cytoplasmic p65 ratio, rep 2": 1.34, "low cell count flag": "enough cells to score"}
{"gene": "Or7g16 (olfactory receptor family 7 subfamily G member 16)", "p65 translocation robust z-score": 1.57, "nuclear/cytoplasmic p65 ratio, rep 1": 1.66, "nuclear/cytoplasmic p65 ratio, rep 2": 1.17, "low cell count flag": "enough cells to score"}
{"gene": "Or8b12 (olfactory receptor family 8 subfamily B member 12)", "nuclear/cytoplasmic p65 ratio, rep 1": 1.48, "nuclear/cytoplasmic p65 ratio, rep 2": 1.34, "low cell count flag": "fewer than 50 cells per well; well left out of scoring"}
{"gene": "Foxd1 (forkhead box D1)", "p65 translocation robust z-score": -0.3, "nuclear/cytoplasmic p65 ratio, rep 1": 1.32, "nuclear/cytoplasmic p65 ratio, rep 2": 1.4, "low cell count flag": "enough cells to score"}
{"gene": "Nolc1 (nucleolar and coiled-body phosphoprotein 1)", "p65 translocation robust z-score": -0.84, "nuclear/cytoplasmic p65 ratio, rep 1": 1.59, "nuclear/cytoplasmic p65 ratio, rep 2": 1.41, "low cell count flag": "enough cells to score"}

The list goes on, starting with the last 3 of the part before.
{"gene": "Or8b12 (olfactory receptor family 8 subfamily B member 12)", "nuclear/cytoplasmic p65 ratio, rep 1": 1.48, "nuclear/cytoplasmic p65 ratio, rep 2": 1.34, "low cell count flag": "fewer than 50 cells per well; well left out of scoring"}
{"gene": "Foxd1 (forkhead box D1)", "p65 translocation robust z-score": -0.3, "nuclear/cytoplasmic p65 ratio, rep 1": 1.32, "nuclear/cytoplasmic p65 ratio, rep 2": 1.4, "low cell count flag": "enough cells to score"}
{"gene": "Nolc1 (nucleolar and coiled-body phosphoprotein 1)", "p65 translocation robust z-score": -0.84, "nuclear/cytoplasmic p65 ratio, rep 1": 1.59, "nuclear/cytoplasmic p65 ratio, rep 2": 1.41, "low cell count flag": "enough cells to score"}
{"gene": "Pgm2l1 (phosphoglucomutase 2-like 1)", "p65 translocation robust z-score": -0.72, "nuclear/cytoplasmic p65 ratio, rep 1": 1.29, "nuclear/cytoplasmic p65 ratio, rep 2": 1.2, "low cell count flag": "enough cells to score"}
{"gene": "Nek1 (NIMA (never in mitosis gene a)-related expressed kinase 1)", "p65 translocation robust z-score": 0.19, "nuclear/cytoplasmic p65 ratio, rep 1": 1.65, "nuclear/cytoplasmic p65 ratio, rep 2": 1.45, "low cell count flag": "enough cells to score"}
{"gene": "Rnf121 (ring finger protein 121)", "p65 translocation robust z-score": -0.05, "nuclear/cytoplasmic p65 ratio, rep 1": 1.41, "nuclear/cytoplasmic p65 ratio, rep 2": 1.1, "low cell count flag": "enough cells to score"}
{"gene": "Rars2 (arginyl-tRNA synthetase 2, mitochondrial)", "nuclear/cytoplasmic p65 ratio, rep 1": 1.27, "nuclear/cytoplasmic p65 ratio, rep 2": 1.21, "low cell count flag": "fewer than 50 cells per well; well left out of scoring"}
{"gene": "4930544G11Rik (RIKEN cDNA 4930544G11 gene)", "nuclear/cytoplasmic p65 ratio, rep 1": 1.1, "nuclear/cytoplasmic p65 ratio, rep 2": 1.34, "low cell count flag": "fewer than 50 cells per well; well left out of scoring"}
{"gene": "Star (steroidogenic acute regulatory protein)", "p65 translocation robust z-score": 0.98, "nuclear/cytoplasmic p65 ratio, rep 1": 1.64, "nuclear/cytoplasmic p65 ratio, rep 2": 1.74, "low cell count flag": "enough cells to score"}
{"gene": "Ecpas (Ecm29 proteasome adaptor and scaffold)", "p65 translocation robust z-score": 0.78, "nuclear/cytoplasmic p65 ratio, rep 1": 1.62, "nuclear/cytoplasmic p65 ratio, rep 2": 1.91, "low cell count flag": "enough cells to score"}
{"gene": "Sdk1 (sidekick cell adhesion molecule 1)", "p65 translocation robust z-score": -0.4, "nuclear/cytoplasmic p65 ratio, rep 1": 1.35, "nuclear/cytoplasmic p65 ratio, rep 2": 1.49, "low cell count flag": "enough cells to score"}
{"gene": "Itgal (integrin alpha L)", "p65 translocation robust z-score": 0.71, "nuclear/cytoplasmic p65 ratio, rep 1": 1.59, "nuclear/cytoplasmic p65 ratio, rep 2": 1.45, "low cell count flag": "enough cells to score"}
{"gene": "Ppp2ca", "p65 translocation robust z-score": -0.54, "nuclear/cytoplasmic p65 ratio, rep 1": 1.62, "nuclear/cytoplasmic p65 ratio, rep 2": 1.31, "low cell count flag": "enough cells to score"}
{"gene": "Zdhhc13 (zinc finger, DHHC domain containing 13)", "nuclear/cytoplasmic p65 ratio, rep 1": 1.25, "nuclear/cytoplasmic p65 ratio, rep 2": 1.21, "low cell count flag": "fewer than 50 cells per well; well left out of scoring"}
{"gene": "Mier3 (MIER family member 3)", "p65 translocation robust z-score": 0.66, "nuclear/cytoplasmic p65 ratio, rep 1": 1.54, "nuclear/cytoplasmic p65 ratio, rep 2": 1.47, "low cell count flag": "enough cells to score"}
